Reference: PubChem BioAssay AID248 (DTP/NCI, 2004)
The list does not hold the whole screen: it is rich in T/C values a quarter to a half above the control, in often repeated tests (any T/C) and in doses without a T/C. Other doses and runs of a compound stand elsewhere. T/C: endpoint of the treated group in % of that of the vehicle group. Some doses have a count of surviving animals in place of a T/C: the source files T/C as zero there, which appears to mark a toxic dose or a test without result, not a measured value. Some doses without a T/C left all or most animals alive at the check, yet need not have been tolerated: the source hardly ever lists a survival T/C far under the control, and the zero likely stands for such cases as well. Counts of survivors are from the toxicity check (mostly the fifth day) where no day follows; animals may have died later. Schedule codes are those of the source, read here as Q, the interval in days (D) or hours (H), X, the number of doses. Some schedules carry Z or #; the key to these is not given. For survival time, this PubChem deposit counts one and a half times the control or more as active, and values a quarter to a half above the control carry no call in these data; other NCI protocols may use other cut-offs. Counts like (3×) say how often a value occurs here. Some T/C values carry the count of animals alive at the toxicity check (mostly the fifth day); where none is given, no animal had died by that day. Some entries hold several experiments; their values stand side by side, smallest first.

System: L1210 leukemia ip in BDF1 mice, survival T/C
Test: NCI In Vivo Anticancer Drug Screen. Data for tumor model L1210 Leukemia (intraperitoneal) in B6D2F1 (BDF1) mice
Details: T/C endpoint: mean survival time, higher T/C = longer survival
[1] = dose: 400.0 mg/kg/injection, schedule: Q01DX001 (ip), vehicle: Klucel (hydroxypropylcellulose) (HPC)
[2] = dose: 300.0 mg/kg/injection, schedule: Q01DX001 (ip), vehicle: saline
[3] = dose: 200.0 mg/kg/injection, schedule: Q01DX001 (ip), vehicle: saline
[4] = dose: 400.0 mg/kg/injection, schedule: Q01DX009 (ip), vehicle: Klucel (hydroxypropylcellulose) (HPC)
[5] = dose: 50.0 mg/kg/injection, schedule: Q01DX009 (ip), vehicle: Klucel (hydroxypropylcellulose) (HPC)
[6] = dose: 400.0 mg/kg/injection, schedule: Q01DX009 (ip), vehicle: saline with Tween-80
[7] = dose: 150.0 mg/kg/injection, schedule: Q01DX001 (ip), vehicle: saline
[8] = dose: 100.0 mg/kg/injection, schedule: Q01DX001 (ip), vehicle: saline
[9] = dose: 200.0 mg/kg/injection, schedule: Q01DX009 (ip), vehicle: saline with Tween-80

CCOC(=O)C(N)Cc1ccc(N(CCCl)CCCl)cc1 (centres undefined)
T/C (dose: 0.25 mg/kg/injection, schedule: Q01DX Z (ip), vehicle: saline): 130 % of control | T/C (dose: 0.5 mg/kg/injection, schedule: Q01DX Z (ip), vehicle: saline): 133 % of control | T/C (dose: 1.0 mg/kg/injection, schedule: Q01DX Z (ip), vehicle: saline): 140 % of control | T/C (dose: 1.0 mg/kg/injection, schedule: Q01DX Z (oral), vehicle: saline): 127 % of control | T/C (dose: 2.0 mg/kg/injection, schedule: Q01DX Z (oral), vehicle: saline): 130 and 133 % of control [5 of 6 alive] | T/C (dose: 3.0 mg/kg/injection, schedule: Q01DX Z (ip), vehicle: saline): 147 % of control | T/C (dose: 4.0 mg/kg/injection, schedule: Q01DX Z (ip), vehicle: saline): 141 % of control | T/C (dose: 8.0 mg/kg/injection, schedule: Q01DX Z (oral), vehicle: saline): 138 % of control (2×) | T/C (dose: 13.5 mg/kg/injection, schedule: Q01DX Z (ip), vehicle: saline): 135 and 140 % of control | survivor count (dose: 30.0 mg/kg/injection, schedule: Q01DX Z (ip), vehicle: saline): 6 of 6 | survivor count (dose: 32.0 mg/kg/injection, schedule: Q01DX Z (oral), vehicle: saline): 6 of 6 | survivor count (dose: 64.0 mg/kg/injection, schedule: Q01DX Z (oral), vehicle: saline): 2 of 6

COc1ccccc1-n1c(O)c(N=Nc2ccc(C)cc2)c(=O)n(-c2ccc(Cl)cc2)c1=S
survivor count [1]: 1 of 6

CC1(c2ccc[n+](CC(=O)c3ccccc3)c2)OCCO1
survivor count [2]: 0 of 6

CN1C2CC(=O)CC1C(O)C2 (centres undefined)
survivor count (dose: 50.0 mg/kg/injection, schedule: Q01DX001 (ip), vehicle: saline): 4 of 4 | survivor count [3]: 4 of 4

CC(=O)Nc1cc([N+](=O)[O-])ccc1C
survivor count [4]: 0 of 6

CCCCCCCCCCNCCCCNCCCCCCCCCC
survivor count (dose: 12.5 mg/kg/injection, schedule: Q01DX009 (ip), vehicle: Klucel (hydroxypropylcellulose) (HPC)): 4 of 6 | survivor count (dose: 25.0 mg/kg/injection, schedule: Q01DX009 (ip), vehicle: Klucel (hydroxypropylcellulose) (HPC)): 0 of 6 | survivor count [5]: 0 of 6 | survivor count (dose: 100.0 mg/kg/injection, schedule: Q01DX009 (ip), vehicle: Klucel (hydroxypropylcellulose) (HPC)): 0 of 6 | survivor count (dose: 200.0 mg/kg/injection, schedule: Q01DX009 (ip), vehicle: Klucel (hydroxypropylcellulose) (HPC)): 0 of 6 | survivor count [4]: 0 of 6

COc1ccc(NC(=O)Nc2ccc(NC(C)=O)cc2)cc1
survivor count [6]: 6 of 6

CC/C=C(\C)C1(CCC)C(=O)NC(=O)NC1=O
survivor count [2]: 2 of 6

Cc1nc(Cl)c2cnccn12
survivor count (dose: 200.0 mg/kg/injection, schedule: Q04DX003 (ip), vehicle: saline): 0 of 6 | survivor count (dose: 400.0 mg/kg/injection, schedule: Q04DX003 (ip), vehicle: saline): 0 of 6

Cc1ccnc(N=Cc2ccccc2)c1
survivor count [3]: 0 of 4 | survivor count (dose: 400.0 mg/kg/injection, schedule: Q01DX001 (ip), vehicle: saline): 0 of 4

CCN(C)CCC(CC=C(C)C)(C(N)=O)c1cccc2ccccc12 (centres undefined)
survivor count (dose: 50.0 mg/kg/injection, schedule: Q04DX002 (ip), vehicle: saline): 2 of 3

O=C(CN1CCCCC1)Nc1ccc(S(=O)(=O)c2ccc([N+](=O)[O-])cc2)cc1
survivor count [7]: 1 of 6 | survivor count [2]: 1 of 6

Cc1c(NC(=O)Nc2ccccc2F)c(=O)n(-c2ccccc2)n1C
survivor count [8]: 6 of 6 | survivor count (dose: 200.0 mg/kg/injection, schedule: Q01DX009 (ip), vehicle: acetone): 6 of 6 | survivor count (dose: 400.0 mg/kg/injection, schedule: Q01DX009 (ip), vehicle: acetone): 6 of 6

ClCC1=NCCN1
survivor count (dose: 100.0 mg/kg/injection, schedule: Q04DX002 (ip), vehicle: Klucel (hydroxypropylcellulose) (HPC)): 3 of 3 | survivor count (dose: 200.0 mg/kg/injection, schedule: Q04DX002 (ip), vehicle: Klucel (hydroxypropylcellulose) (HPC)): 0 of 3 | survivor count (dose: 400.0 mg/kg/injection, schedule: Q04DX002 (ip), vehicle: Klucel (hydroxypropylcellulose) (HPC)): 0 of 3

CC1CN=C(c2ccc(NC(=O)c3ccc(C(=O)Nc4ccc(C5=NCC(C)CN5)cc4)c(Cl)c3)cc2)NC1 (centres undefined)
survivor count (dose: 16.0 mg/kg/injection, schedule: Q01DX015 (ip), vehicle: methylcellulose (MC)): 0 of 6 | survivor count (dose: 31.0 mg/kg/injection, schedule: Q01DX015 (ip), vehicle: methylcellulose (MC)): 0 of 6 | survivor count (dose: 62.0 mg/kg/injection, schedule: Q01DX015 (ip), vehicle: methylcellulose (MC)): 0 of 6 | survivor count (dose: 125.0 mg/kg/injection, schedule: Q01DX015 (ip), vehicle: methylcellulose (MC)): 0 of 6

BrP(NN=C1CCCCC1)(c1ccccc1)(c1ccccc1)c1ccccc1
survivor count (dose: 75.0 mg/kg/injection, schedule: Q01DX001 (ip), vehicle: saline): 0 of 6 | survivor count [7]: 0 of 6 | survivor count [2]: 0 of 6

CC(=O)OC1=CCC(C(C)(C)C)CC1 (centres undefined)
survivor count [5]: 6 of 6 | survivor count (dose: 100.0 mg/kg/injection, schedule: Q04DX003 (ip), vehicle: Klucel (hydroxypropylcellulose) (HPC)): 4 of 6 | survivor count (dose: 200.0 mg/kg/injection, schedule: Q04DX003 (ip), vehicle: Klucel (hydroxypropylcellulose) (HPC)): 0 of 6 | survivor count (dose: 400.0 mg/kg/injection, schedule: Q04DX003 (ip), vehicle: Klucel (hydroxypropylcellulose) (HPC)): 0 of 6

CCCCCc1c2c(c(CCCCC)c3c1-c1cccc4cccc-3c14)-c1ccc(C)cc1C2
survivor count (dose: 200.0 mg/kg/injection, schedule: Q01DX001 (ip), vehicle: saline with Tween-80): 3 of 3

Cc1ccc(C(=O)Cl)cc1S(=O)(=O)F
survivor count (dose: 100.0 mg/kg/injection, schedule: Q01DX009 (ip), vehicle: saline with Tween-80): 3 of 6 | survivor count (dose: 100.0 mg/kg/injection, schedule: Q04DX003 (ip), vehicle: saline with Tween-80): 6 of 6 | survivor count [9]: 3 of 6 | survivor count (dose: 400.0 mg/kg/injection, schedule: Q04DX003 (ip), vehicle: saline with Tween-80): 2 of 6

O=C(O)C1C2C=Cc3ccccc3C21 (centres undefined)
survivor count [8]: 3 of 3 | survivor count [3]: 3 of 3

CCCCCCC(O)/C=C/c1ccc(Cl)cc1 (centres undefined)
survivor count [6]: 6 of 6

CCCCOC(=O)c1ccc(NC(=O)Nc2cccc(F)c2)cc1
survivor count [9]: 3 of 6 | survivor count [6]: 0 of 6

CN(CCCN)CCCN
survivor count (dose: 200.0 mg/kg/injection, schedule: Q04DX002 (ip), vehicle: saline): 1 of 3 | survivor count (dose: 400.0 mg/kg/injection, schedule: Q04DX002 (ip), vehicle: saline): 0 of 3

Cc1cc(NC(=O)NCCCl)c2c(c1C)CCCC2
survivor count (dose: 80.0 mg/kg/injection, schedule: Q01DX001 (ip), vehicle: Klucel (hydroxypropylcellulose) (HPC)): 3 of 6 | survivor count (dose: 200.0 mg/kg/injection, schedule: Q01DX001 (ip), vehicle: Klucel (hydroxypropylcellulose) (HPC)): 3 of 6 | survivor count [1]: 2 of 6

CO[C@H]1C[C@H](O[C@H]2CC[C@]3(C=O)[C@H]4CC[C@]5(C)[C@@H](C6=CC(=O)OC6)CC[C@]5(O)[C@@H]4CC[C@]3(O)C2)O[C@H](C)[C@H]1O[C@@H]1O[C@H](CO[C@@H]2O[C@H](CO)[C@@H](O)[C@H](O)[C@H]2O)[C@@H](O)[C@H](O)[C@H]1O
survivor count (dose: 2.5 mg/kg/injection, schedule: Q01DX001 (sc), vehicle: steroid suspending solution): 0 of 6 | survivor count (dose: 4.0 mg/kg/injection, schedule: Q01DX001 (sc), vehicle: steroid suspending solution): 0 of 6 | survivor count (dose: 5.0 mg/kg/injection, schedule: Q01DX001 (sc), vehicle: steroid suspending solution): 1 of 6 | survivor count (dose: 10.0 mg/kg/injection, schedule: Q01DX001 (sc), vehicle: steroid suspending solution): 0 of 6

O=C(Nc1cccc(Cl)c1)Oc1ccc(Cl)cc1Cl
survivor count (dose: 400.0 mg/kg/injection, schedule: Q04DX002 (ip), vehicle: saline with Tween-80): 0 of 3
